# The other results are listed elsewhere or left out. Single values are uncertain, as repeats are few or missing.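 The apoptosis fraction was the count of cleaved-PARP antibody-stained nuclei relative to all DNA-stained nuclei, imaged in 1,536-well plates. Screening doses were set so most cells survived, and baseline and induced cleaved-PARP levels vary greatly across cell lines.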
# What was measured:
# Assay in all cases: cleaved PARP positive nuclei fraction relative to DMSO control; melanoma cells; higher = more apoptosis
# Conditions in all cases: library dose: low library concentration; 72 h
# [1] = system: 501Mel
# [2] = system: A101D
# [3] = system: A2058
# [4] = system: A375
# [5] = system: C32
# [6] = system: CBRC008 (line from a melanoma biopsy)
# [7] = system: CBRC014 (line from a melanoma biopsy)
# [8] = system: CBRC016 (line from a melanoma biopsy)
# [9] = system: CBRC017 (line from a melanoma biopsy)
# [10] = system: CBRC034 (line from a melanoma biopsy)
# [11] = system: COLO792
# [12] = system: COLO800
# [13] = system: COLO829
# [14] = system: G361
# [15] = system: IPC-298
# [16] = system: IST-MEL1
# [17] = system: LB2518-MEL
# [18] = system: LOXIMVI
# [19] = system: MEL-HO
SMILES,cleaved PARP positive nuclei fraction [1],cleaved PARP positive nuclei fraction [2],cleaved PARP positive nuclei fraction [3],cleaved PARP positive nuclei fraction [4],cleaved PARP positive nuclei fraction [5],cleaved PARP positive nuclei fraction [6],cleaved PARP positive nuclei fraction [7],cleaved PARP positive nuclei fraction [8],cleaved PARP positive nuclei fraction [9],cleaved PARP positive nuclei fraction [10],cleaved PARP positive nuclei fraction [11],cleaved PARP positive nuclei fraction [12],cleaved PARP positive nuclei fraction [13],cleaved PARP positive nuclei fraction [14],cleaved PARP positive nuclei fraction [15],cleaved PARP positive nuclei fraction [16],cleaved PARP positive nuclei fraction [17],cleaved PARP positive nuclei fraction [18],cleaved PARP positive nuclei fraction [19]
"NC(=O)c1ccc(N(C(N)=O)c2c(F)cccc2F)nc1-c1ccc(F)cc1F + CN1CCN(c2ccc3nc(-c4c(N)c5c(F)cccc5[nH]c4=O)[nH]c3c2)CC1 [Dovitinib] (first compound 0.4 µM, partner dose 0.1 µM)",309%,123%,127%,150%,124%,38.9%,90.1%,38.3%,70.8%,65.2%,60.2%,360%,100%,161%,83.5%,353%,35%,132%,143%
"CN(c1ncccc1CNc1nc(Nc2ccc3c(c2)CC(=O)N3)ncc1C(F)(F)F)S(C)(=O)=O + C[C@@H](Oc1cc(-c2cnn(C3CCNCC3)c2)cnc1N)c1c(Cl)ccc(F)c1Cl [Crizotinib] (first compound 0.08 µM, partner dose 0.2 µM)",101%,50.8%,137%,57.4%,92.8%,47%,111%,126%,103%,146%,99.1%,81.8%,138%,79%,37.3%,303%,100%,115%,29.8%
"C[C@@H](N)c1ccc(C(=O)Nc2ccnc3[nH]ccc23)cc1 + C#Cc1cccc(Nc2ncnc3cc(OCCOC)c(OCCOC)cc23)c1 [erlotinib] (first compound 0.4 µM, partner dose 0.8 µM)",103%,57.6%,57.2%,97.9%,334%,52.5%,125%,208%,100%,143%,111%,74.3%,130%,91.2%,45.8%,67.5%,106%,120%,113%
"C[C@@H](N)c1ccc(C(=O)Nc2ccnc3[nH]ccc23)cc1 + C[C@]1(c2nc3c(C(N)=O)cccc3[nH]2)CCCN1 [Veliparib] (first compound 0.4 µM, partner dose 1.4 µM)",77.6%,48.8%,213%,328%,112%,43.5%,87.5%,49.5%,79.2%,47.7%,219%,119%,148%,154%,259%,170%,135%,469%,179%
"CN(c1ncccc1CNc1nc(Nc2ccc3c(c2)CC(=O)N3)ncc1C(F)(F)F)S(C)(=O)=O + OCc1c[nH]c2ccccc12 [Indole-3-carbinol] (first compound 0.08 µM, partner dose 0.8 µM)",122%,168%,304%,220%,188%,88.4%,79.6%,62.5%,92.9%,184%,104%,48.9%,252%,159%,146%,132%,99.8%,38.7%,168%
"CC1(C)CCC(c2ccc(Cl)cc2)=C(CN2CCN(c3ccc(C(=O)NS(=O)(=O)c4ccc(N[C@H](CCN5CCOCC5)CSc5ccccc5)c(S(=O)(=O)C(F)(F)F)c4)cc3)CC2)C1 + COCC[n+]1c2c(n(Cc3cnccn3)c1C)C(=O)c1ccccc1C2=O [YM155] (first compound 0.4 µM, partner dose 0.0004 µM)",155%,103%,90.2%,506%,131%,736%,467%,735%,691%,254%,347%,189%,81.3%,232%,138%,332%,192%,595%,90%
"NC1(c2ccc(-c3nc4ccn5c(=O)[nH]nc5c4cc3-c3ccccc3)cc2)CCC1 + Clc1ccc(Nc2nnc(Cc3ccncc3)c3ccccc23)cc1 [vatalanib] (first compound 0.4 µM, partner dose 2 µM)",58%,57%,321%,150%,83.2%,98.8%,116%,43.6%,140%,68.2%,132%,95.1%,150%,152%,47.5%,201%,110%,109%,105%
"COc1ccc(C2=N[C@@H](c3ccc(Cl)cc3)[C@@H](c3ccc(Cl)cc3)N2C(=O)N2CCNC(=O)C2)c(OC(C)C)c1 [Nutlin-3] + CS(=O)(=O)CCNCc1ccc(-c2ccc3ncnc(Nc4ccc(OCc5cccc(F)c5)c(Cl)c4)c3c2)o1 [lapatinib] (first compound 0.1 µM, partner dose 0.8 µM)",44.6%,47.4%,94.2%,64.2%,67.8%,134%,107%,20.4%,103%,133%,126%,60.6%,46.9%,101%,91.7%,138%,53.7%,35.3%,37.4%
"C[C@@H](N)c1ccc(C(=O)Nc2ccnc3[nH]ccc23)cc1 + Cc1cc(Nc2cc(N3CCN(C)CC3)nc(/C=C/c3ccccc3)n2)n[nH]1 [ENMD2076] (first compound 0.4 µM, partner dose 0.04 µM)",143%,44.5%,113%,299%,84.4%,133%,101%,114%,95.6%,265%,154%,90.4%,155%,156%,57.7%,90.8%,43.1%,124%,190%
"CC1(C)CCC(c2ccc(Cl)cc2)=C(CN2CCN(c3ccc(C(=O)NS(=O)(=O)c4ccc(N[C@H](CCN5CCOCC5)CSc5ccccc5)c(S(=O)(=O)C(F)(F)F)c4)cc3)CC2)C1 + OCc1c[nH]c2ccccc12 [Indole-3-carbinol] (first compound 0.4 µM, partner dose 0.8 µM)",136%,191%,118%,329%,299%,352%,661%,659%,258%,79.5%,281%,113%,39.6%,180%,80.8%,44.8%,114%,45.8%,141%
"NC(=O)c1ccc(N(C(N)=O)c2c(F)cccc2F)nc1-c1ccc(F)cc1F + Cn1c(Nc2ccc(C(F)(F)F)cc2)nc2cc(Oc3ccnc(-c4ncc(C(F)(F)F)[nH]4)c3)ccc21 [CHIR265] (first compound 0.4 µM, partner dose 0.08 µM)",74.3%,126%,93.1%,149%,177%,31.3%,204%,136%,89.6%,41%,167%,197%,115%,124%,189%,123%,72.6%,131%,111%
"CCN(CC)CCNC(=O)c1c(C)[nH]c(/C=C2\C(=O)Nc3ccc(F)cc32)c1C [sunitinib] + C[C@]1(c2nc3c(C(N)=O)cccc3[nH]2)CCCN1 [Veliparib] (first compound 0.4 µM, partner dose 1.4 µM)",185%,55.2%,33.1%,332%,156%,32.9%,106%,73.2%,106%,98.8%,152%,87.3%,96.6%,115%,89.8%,78.7%,123%,118%,132%
"CCN(CC)CCNC(=O)c1c(C)[nH]c(/C=C2\C(=O)Nc3ccc(F)cc32)c1C [sunitinib] + CC(C)C[C@H](NC(=O)[C@H](Cc1ccccc1)NC(=O)c1cnccn1)B(O)O [Bortezomib] (first compound 0.4 µM, partner dose 0.001 µM)",770%,74%,76.5%,152%,78.8%,178%,146%,145%,104%,78.9%,92%,101%,112%,460%,95.1%,81.7%,299%,27.1%,168%
"Cn1cnc2c(F)c(Nc3ccc(Br)cc3Cl)c(C(=O)NOCCO)cc21 [selumetinib] + CCCCCCCCc1ccc(CCC(N)(CO)CO)cc1 [fingolimod] (first compound 0.015 µM, partner dose 2 µM)",1190%,110%,34.7%,374%,187%,127%,93.6%,182%,129%,192%,140%,34.5%,138%,99.9%,404%,406%,182%,55.7%,80.7%
"Cn1sc(=O)n(Cc2ccccc2)c1=O + CCCCCCCCc1ccc(CCC(N)(CO)CO)cc1 [fingolimod] (first compound 0.4 µM, partner dose 2 µM)",93.8%,21.1%,74.2%,500%,260%,54.1%,84.3%,28.3%,103%,62.8%,56.2%,125%,123%,68.1%,87.2%,397%,107%,150%,32.3%
"CC1(C)CCC(c2ccc(Cl)cc2)=C(CN2CCN(c3ccc(C(=O)NS(=O)(=O)c4ccc(N[C@H](CCN5CCOCC5)CSc5ccccc5)c(S(=O)(=O)C(F)(F)F)c4)cc3)CC2)C1 + C#Cc1cccc(Nc2ncnc3cc(OCCOC)c(OCCOC)cc23)c1 [erlotinib] (first compound 0.4 µM, partner dose 0.8 µM)",200%,489%,73.2%,274%,123%,473%,427%,403%,325%,44.1%,483%,37.7%,77%,294%,212%,166%,222%,190%,99%

# Part of the list above, as tab-separated lines.
SMILES	cleaved PARP positive nuclei fraction [1]	cleaved PARP positive nuclei fraction [2]	cleaved PARP positive nuclei fraction [3]	cleaved PARP positive nuclei fraction [4]	cleaved PARP positive nuclei fraction [5]	cleaved PARP positive nuclei fraction [6]	cleaved PARP positive nuclei fraction [7]	cleaved PARP positive nuclei fraction [8]	cleaved PARP positive nuclei fraction [9]	cleaved PARP positive nuclei fraction [10]	cleaved PARP positive nuclei fraction [11]	cleaved PARP positive nuclei fraction [12]	cleaved PARP positive nuclei fraction [13]	cleaved PARP positive nuclei fraction [14]	cleaved PARP positive nuclei fraction [15]	cleaved PARP positive nuclei fraction [16]	cleaved PARP positive nuclei fraction [17]	cleaved PARP positive nuclei fraction [18]	cleaved PARP positive nuclei fraction [19]
NC(=O)c1ccc(N(C(N)=O)c2c(F)cccc2F)nc1-c1ccc(F)cc1F + CN1CCN(c2ccc3nc(-c4c(N)c5c(F)cccc5[nH]c4=O)[nH]c3c2)CC1 [Dovitinib] (first compound 0.4 µM, partner dose 0.1 µM)	309%	123%	127%	150%	124%	38.9%	90.1%	38.3%	70.8%	65.2%	60.2%	360%	100%	161%	83.5%	353%	35%	132%	143%
C[C@@H](N)c1ccc(C(=O)Nc2ccnc3[nH]ccc23)cc1 + Cc1cc(Nc2cc(N3CCN(C)CC3)nc(/C=C/c3ccccc3)n2)n[nH]1 [ENMD2076] (first compound 0.4 µM, partner dose 0.04 µM)	143%	44.5%	113%	299%	84.4%	133%	101%	114%	95.6%	265%	154%	90.4%	155%	156%	57.7%	90.8%	43.1%	124%	190%
